From PMC4231747
Results are given in words; binding and its absence hold for the method and conditions named. In cells and extracts the contact can be indirect. Here binding means that the protein was enriched with, or labelled near, the bait; the list need not be complete.

By UniProt entry, the sequences of proteins in these tests, tags left out.
UniProt P40160: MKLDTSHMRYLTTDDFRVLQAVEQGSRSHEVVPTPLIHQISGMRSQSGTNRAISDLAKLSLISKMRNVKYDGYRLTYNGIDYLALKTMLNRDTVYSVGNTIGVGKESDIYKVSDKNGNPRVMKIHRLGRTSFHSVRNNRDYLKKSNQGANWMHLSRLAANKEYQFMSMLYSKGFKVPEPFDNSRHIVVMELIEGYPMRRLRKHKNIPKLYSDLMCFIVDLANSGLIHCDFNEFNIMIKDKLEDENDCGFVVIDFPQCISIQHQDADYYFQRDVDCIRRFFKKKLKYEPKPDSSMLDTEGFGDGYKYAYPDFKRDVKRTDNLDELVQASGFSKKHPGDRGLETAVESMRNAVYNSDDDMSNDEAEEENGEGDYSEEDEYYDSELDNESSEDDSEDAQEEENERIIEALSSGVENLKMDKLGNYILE

What was measured:
Assay in all cases: affinity purification with mass spectrometry; pre-ribosomal particles purified from yeast by the tagged bait (Nob1-HTP, Pno1-TAP, Rio2-TAP, Rio1-TAP), fractionated on a Superose 6 gel filtration column; elution fractions 1-5 digested and analysed by LC-MS/MS
[1] = target: T1, Pno1-TAP (S. cerevisiae), Q99216; conditions: remark: other sources report otherwise
T1 chain: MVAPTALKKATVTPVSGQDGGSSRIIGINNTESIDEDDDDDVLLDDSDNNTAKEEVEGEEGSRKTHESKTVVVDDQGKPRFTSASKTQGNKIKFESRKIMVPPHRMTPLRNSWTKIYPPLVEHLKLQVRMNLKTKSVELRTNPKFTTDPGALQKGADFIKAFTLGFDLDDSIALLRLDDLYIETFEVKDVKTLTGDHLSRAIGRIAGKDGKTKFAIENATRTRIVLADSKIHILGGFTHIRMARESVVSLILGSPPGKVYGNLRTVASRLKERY

[2] = target: T2, Nob1-HTP (S. cerevisiae), Q08444; conditions: remark: other sources report otherwise
T2 chain: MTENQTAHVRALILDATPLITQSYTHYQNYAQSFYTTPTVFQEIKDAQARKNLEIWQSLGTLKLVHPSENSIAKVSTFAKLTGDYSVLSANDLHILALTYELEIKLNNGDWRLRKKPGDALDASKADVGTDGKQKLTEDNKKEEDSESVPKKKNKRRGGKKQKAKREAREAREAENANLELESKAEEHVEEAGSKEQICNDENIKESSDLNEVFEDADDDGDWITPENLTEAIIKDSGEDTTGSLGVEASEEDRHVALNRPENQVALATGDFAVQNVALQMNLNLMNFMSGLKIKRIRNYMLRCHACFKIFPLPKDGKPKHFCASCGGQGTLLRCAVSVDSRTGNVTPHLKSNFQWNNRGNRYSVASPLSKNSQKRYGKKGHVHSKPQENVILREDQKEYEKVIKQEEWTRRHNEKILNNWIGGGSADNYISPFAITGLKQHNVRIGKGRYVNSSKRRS

[3] = target: T3, Nob1-HTP (S. cerevisiae) (UniProt Q08444)
T3 sequence: T2 chain

[4] = target: T4, Pno1-TAP (S. cerevisiae) (UniProt Q99216)
T4 sequence: T1 chain

[5] = target: Rio2-TAP (S. cerevisiae) (UniProt P40160)
[6] = target: T5, Rio1-TAP (S. cerevisiae) (UniProt Q12196)
T5 sequence: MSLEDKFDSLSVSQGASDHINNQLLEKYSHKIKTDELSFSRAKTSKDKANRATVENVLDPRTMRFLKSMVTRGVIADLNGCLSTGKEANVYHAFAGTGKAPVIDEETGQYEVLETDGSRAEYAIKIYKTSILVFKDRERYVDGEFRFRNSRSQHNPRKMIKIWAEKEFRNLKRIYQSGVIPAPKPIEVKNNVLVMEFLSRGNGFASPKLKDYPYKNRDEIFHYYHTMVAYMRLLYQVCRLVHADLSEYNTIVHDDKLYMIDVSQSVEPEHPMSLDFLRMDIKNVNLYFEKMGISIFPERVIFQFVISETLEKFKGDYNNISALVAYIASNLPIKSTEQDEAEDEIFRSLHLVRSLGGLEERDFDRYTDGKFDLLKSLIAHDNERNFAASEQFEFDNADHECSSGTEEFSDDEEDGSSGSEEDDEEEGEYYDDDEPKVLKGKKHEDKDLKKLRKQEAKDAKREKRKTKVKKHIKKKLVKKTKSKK

Measured: binding

B1: Rio1, Q12196 1-484 (enzyme)
chain: T5 sequence
binds: [1] | [2]

B2: 40S subunit ribosomal protein Rps4A (protein, UniProt P0CX35 1-261)
chain: MARGPKKHLKRLAAPHHWLLDKLSGCYAPRPSAGPHKLRESLPLIVFLRNRLKYALNGREVKAILMQRHVKVDGKVRTDTTYPAGFMDVITLDATNENFRLVYDVKGRFAVHRITDEEASYKLGKVKKVQLGKKGVPYVVTHDGRTIRYPDPNIKVNDTVKIDLASGKITDFIKFDAGKLVYVTGGRNLGRIGTIVHKERHDGGFDLVHIKDSLDNTFVTRLNNVFVIGEQGKPYISLPKGKGIKLSIAEERDRRRAQQGL
binds: [3] | [4] | [5] | [6]
